Common to all, as to assay type: cell-based, human
Assay [1] concerns HeLa. Kind of assay: MTT cytotoxicity assay, HeLa. The note with it: read-out: IC50 HeLa, cells treated for 24 h. Background: Formazan colour is commonly taken as a measure of viable cells.
For assay [2], the system named is Sk-Ov-3. Kind of assay: MTT cytotoxicity assay, Sk-Ov-3. The note with it: read-out: IC50 Sk-Ov-3, cells treated for 24 h.
Assay [3] has as its system A549. Kind of assay: MTT cytotoxicity assay, A549. Conditions: read-out: IC50 A549, cells treated for 24 h.

As to `N.N.[Cl][Pt][Cl]` [Cisplatin], the IC50 (usually the concentration that gives 50% inhibition) in assay [1] is 13.6 ± 2.63 µM; in assay [2], 14.4 ± 0.43 µM; in assay [3] it was 21.3 ± 2.74 µM.

The record behind these values is PMC9049676 (RSC Advances, 2020).
